Results are given in words; binding and its absence hold for the method and conditions named. Some binding calls cover weakened binding; strength is not graded here.
How the values were obtained:
[1] = biological target: T1, Kdh middle subunit KdhM (6-hydroxypseudooxynicotine 2-oxidoreductase / ketone dehydrogenase, middle subunit) (Arthrobacter nicotinovorans) (UniProt O87681); assay: crystal structure; Kdh holoenzyme crystallised by hanging-drop vapor diffusion at 14 °C; 1% tryptone, 0.1 M Tris-HCl pH 8.0, 25% PEG 3350; space group P212121, two heterotrimers per asymmetric unit; 3.4 Å; both purified
T1 sequence: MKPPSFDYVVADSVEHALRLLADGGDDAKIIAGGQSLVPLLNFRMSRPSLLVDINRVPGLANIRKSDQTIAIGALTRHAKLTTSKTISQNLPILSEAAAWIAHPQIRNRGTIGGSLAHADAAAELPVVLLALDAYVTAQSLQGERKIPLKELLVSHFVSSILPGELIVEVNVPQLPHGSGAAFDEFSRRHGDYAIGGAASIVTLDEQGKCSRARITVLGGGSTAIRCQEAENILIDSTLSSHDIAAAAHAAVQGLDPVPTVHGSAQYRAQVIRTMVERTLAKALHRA

[2] = biological target: T2, Kdh large subunit KdhL (6-hydroxypseudooxynicotine 2-oxidoreductase / ketone dehydrogenase, large subunit) (Arthrobacter nicotinovorans) (UniProt Q933N0); assay: as above
T2 sequence: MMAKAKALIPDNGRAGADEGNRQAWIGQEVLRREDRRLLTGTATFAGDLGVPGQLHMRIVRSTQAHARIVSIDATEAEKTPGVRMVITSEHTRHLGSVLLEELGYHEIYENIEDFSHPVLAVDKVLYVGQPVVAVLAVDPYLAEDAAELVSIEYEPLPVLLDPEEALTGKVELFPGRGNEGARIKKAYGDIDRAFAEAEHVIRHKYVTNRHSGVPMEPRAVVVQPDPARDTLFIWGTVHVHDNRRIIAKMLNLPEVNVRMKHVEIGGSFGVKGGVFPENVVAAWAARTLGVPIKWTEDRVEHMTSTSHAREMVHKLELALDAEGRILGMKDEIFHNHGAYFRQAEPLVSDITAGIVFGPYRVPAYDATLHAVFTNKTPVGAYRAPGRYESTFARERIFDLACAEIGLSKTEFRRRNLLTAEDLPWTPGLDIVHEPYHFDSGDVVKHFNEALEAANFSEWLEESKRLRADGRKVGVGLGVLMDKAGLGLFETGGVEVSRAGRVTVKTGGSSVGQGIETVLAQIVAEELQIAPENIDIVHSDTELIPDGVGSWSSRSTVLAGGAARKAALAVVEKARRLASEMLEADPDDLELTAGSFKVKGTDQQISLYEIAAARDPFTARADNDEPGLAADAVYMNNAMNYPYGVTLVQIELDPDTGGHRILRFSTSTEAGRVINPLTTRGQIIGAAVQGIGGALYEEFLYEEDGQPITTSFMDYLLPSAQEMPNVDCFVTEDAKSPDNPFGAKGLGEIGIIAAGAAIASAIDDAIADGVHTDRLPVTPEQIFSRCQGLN

binding [1]: binds
binding [2]: binds
B1: Kdh small subunit KdhS (6-hydroxypseudooxynicotine 2-oxidoreductase / ketone dehydrogenase, small subunit) (enzyme, UniProt O87682 1-160)
chain: MNAFRLTVEVNGVTHATDVEPRRLLADFLRDDLHLRGTRVGCEHGVCGSCTVLLDGQPVRSCTVLAVQANNSRIETVESLQKDGQLHPLQRSFSKCHALQCGFCTSGFLMTLKPLYDDEDVTLDATSAREAISGNICRCTGYQQIVEATVDAFHCRDHND

From PMC8305194, “Structural, Mechanistic, and Functional Insights into an Arthrobacter nicotinovorans Molybdenum Hydroxylase Involved in Nicotine Degradation” (Molecules, 2021)
